The list shows a part of the results. Repeats are few or missing, and single values can be far off.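 The apoptosis fraction was the count of cleaved-PARP antibody-stained nuclei relative to all DNA-stained nuclei, imaged in 1,536-well plates. Screening doses were set so most cells survived, and baseline and induced cleaved-PARP levels vary greatly across cell lines.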

The first experiment concerns WM3619. As to the kind of experiment: cleaved PARP positive nuclei fraction relative to DMSO control; melanoma cells; higher = more apoptosis. The following applies: library dose: low library concentration; 72 h.
Turning to `Cc1ccc(NC(=O)c2cccc(N(C)C)c2)cc1NC(=O)c1ccc(O)cc1` + CC(C)(C)c1cnc(CSc2cnc(NC(=O)C3CCNCC3)s2)o1 [SNS-032] (first compound 2 µM, partner dose 0.01 µM), the “cleaved PARP positive nuclei fraction” value was determined as 99.1%.
Same read-out and setting: in the case of `C[C@]1(c2nc3c(C(N)=O)cccc3[nH]2)CCCN1` [Veliparib] + Cc1ccc(NC(=O)c2cccc(N(C)C)c2)cc1NC(=O)c1ccc(O)cc1 [ZM336372] (first compound 1.4 µM, partner dose 2 µM) it was 126%; in that of `O=C(CCCCCCC(=O)Nc1ccccc1)NO` [vorinostat] + CN(C)S(=O)(=O)c1ccc2c(c1)/C(=C/c1cc3c([nH]1)CCCC3)C(=O)N2 [SU6656] (first compound 0.08 µM, partner dose 0.4 µM), 94.6%.
The same measure, in the same setting: to `Cn1nnc2c(C(N)=O)ncn2c1=O` [temozolomide] + Oc1nc(-c2ccc(C(F)(F)F)cc2)nc2c1CSCC2 [XAV939] (first compound 2 µM, partner dose 2 µM) belongs 103%.

The subject of the next experiment is WM451Lu. The experiment is described as above. The following applies: library dose: low library concentration; 72 h.
Consider `COc1cc(Nc2ncc(F)c(Nc3ccc4c(n3)NC(=O)C(C)(C)O4)n2)cc(OC)c1OC` [Tamatinib] + O=C(Nc1ccccc1)c1cc([N+](=O)[O-])ccc1Cl [GW9662] (first compound 0.4 µM, partner dose 2 µM), for which the “cleaved PARP positive nuclei fraction” value worked out at 55.9%.
Still for that read-out and setting: in the case of `Cn1cncc1[C@@](N)(c1ccc(Cl)cc1)c1ccc2c(c1)c(-c1cccc(Cl)c1)cc(=O)n2C` [tipifarnib] + O=C(O)C(=O)Nc1sc2c(c1C(=O)O)CCNC2 [TCS401] (first compound 0.01 µM, partner dose 1.66667 µM) it was 40.7%; in that of `C=CCNC1=C2C[C@@H](C)C[C@H](OC)[C@H](O)[C@@H](C)/C=C(\C)[C@H](OC(N)=O)[C@@H](OC)/C=C\C=C(/C)C(=O)NC(=CC1=O)C2=O` [Tanespimycin] + COc1cc(Nc2ncc(F)c(Nc3ccc4c(n3)NC(=O)C(C)(C)O4)n2)cc(OC)c1OC [Tamatinib] (first compound 0.002 µM, partner dose 0.4 µM), 120%.
Still for that read-out and setting: to `Nc1cccc2c1CN(C1CCC(=O)NC1=O)C2=O` (configuration not stated) [lenalidomide] + O=C(O)c1ccc(-c2c[nH]c3ncc(-c4ccccc4)cc23)cc1C1CCCC1 [GSK650394] (first compound 1 µM, partner dose 0.16 µM) belongs 65.9%; to `Cn1cncc1[C@@](N)(c1ccc(Cl)cc1)c1ccc2c(c1)c(-c1cccc(Cl)c1)cc(=O)n2C` [tipifarnib] + CN(C)S(=O)(=O)c1ccc2c(c1)/C(=C/c1cc3c([nH]1)CCCC3)C(=O)N2 [SU6656] (first compound 0.01 µM, partner dose 0.4 µM), 251%; to `Cc1nc(Nc2ncc(C(=O)Nc3c(C)cccc3Cl)s2)cc(N2CCN(CCO)CC2)n1` [dasatanib] + C=CCn1c(=O)c2cnc(Nc3ccc(N4CCN(C)CC4)cc3)nc2n1-c1cccc(C(C)(C)O)n1 [MK1775] (first compound 0.004 µM, partner dose 0.02 µM), 121%.
Regarding `O=C(CCCCCCC(=O)Nc1ccccc1)NO` [vorinostat] + COc1ccc(COc2ccc(Cc3cnc(N)nc3N)cc2OC)cc1 [GW2580] (first compound 0.08 µM, partner dose 1 µM), the “cleaved PARP positive nuclei fraction” value was 72.2%.
The same measure, in the same setting: to `C[C@@H]1CCN(C(=O)CC#N)C[C@@H]1N(C)c1ncnc2[nH]ccc12` + CCc1ccc(CCOc2ccc(CC3SC(=O)NC3=O)cc2)nc1 [pioglitazone] (first compound 1 µM, partner dose 2 µM) belongs 65.3%; to `C#Cc1cccc(Nc2ncnc3cc(OCCOC)c(OCCOC)cc23)c1` [erlotinib] + CC(C)(C)c1cnc(CSc2cnc(NC(=O)C3CCNCC3)s2)o1 [SNS-032] (first compound 0.8 µM, partner dose 0.01 µM), 49.9%.
Still for that read-out and setting: to `Cn1cncc1[C@@](N)(c1ccc(Cl)cc1)c1ccc2c(c1)c(-c1cccc(Cl)c1)cc(=O)n2C` [tipifarnib] + N#Cc1c(O)c2c(-c3ccc(-c4ccccc4O)cc3)csc2[nH]c1=O [A769662] (first compound 0.01 µM, partner dose 2 µM) belongs 140%; to `Cn1cncc1[C@@](N)(c1ccc(Cl)cc1)c1ccc2c(c1)c(-c1cccc(Cl)c1)cc(=O)n2C` [tipifarnib] + COc1cc(N2CCC(N3CCN(C)CC3)CC2)ccc1Nc1ncc(Cl)c(Nc2ccccc2S(=O)(=O)C(C)C)n1 [NVP-TAE684] (first compound 0.01 µM, partner dose 0.08 µM), 471%.
The same measure, in the same setting: in the case of `COCC[n+]1c2c(n(Cc3cnccn3)c1C)C(=O)c1ccccc1C2=O` + NC(=O)Nc1cc(-c2cccc(F)c2)sc1C(=O)N[C@H]1CCCNC1 [AZD7762] (first compound 0.0004 µM, partner dose 0.02 µM) it was 88.8%; in that of `Nc1cccc2c1CN(C1CCC(=O)NC1=O)C2=O` (configuration not stated) [lenalidomide] + OCCn1cc(-c2cnc3nnn(Cc4ccc5ncccc5c4)c3n2)cn1 [PF04217903] (first compound 1 µM, partner dose 1 µM), 41.8%; in that of `Cn1nnc2c(C(N)=O)ncn2c1=O` [temozolomide] + Cc1ccc(NC(=O)c2cccc(N(C)C)c2)cc1NC(=O)c1ccc(O)cc1 [ZM336372] (first compound 2 µM, partner dose 2 µM), 129%.
As for `Cn1nnc2c(C(N)=O)ncn2c1=O` [temozolomide] + Cn1cc(/C=C2\C(=O)Nc3cccnc32)c2ccccc21 [GW441756] (first compound 2 µM, partner dose 0.4 µM), the “cleaved PARP positive nuclei fraction” value was found to be 325%.
On the same count and under the same terms, to `Cc1cc(N2CCOCC2)cc2[nH]c(-c3c(NC[C@@H](O)c4cccc(Cl)c4)cc[nH]c3=O)nc12` + O=C(Nc1ccccc1)c1cc([N+](=O)[O-])ccc1Cl [GW9662] (first compound 0.2 µM, partner dose 2 µM) belongs 101%; to `C[C@]1(c2nc3c(C(N)=O)cccc3[nH]2)CCCN1` [Veliparib] + Oc1cc(-c2nc(-c3ccccc3)[nH]c2-c2ccncc2)ccc1Cl [L779450] (first compound 1.4 µM, partner dose 0.2 µM), 63.3%; to `C#Cc1cccc(Nc2ncnc3cc(OCCOC)c(OCCOC)cc23)c1` [erlotinib] + Cc1cc([N+](=O)[O-])ccc1NS(=O)(=O)c1cc(Cl)ccc1Cl [FH535] (first compound 0.8 µM, partner dose 1 µM), 62.5%.
Still for that read-out and setting: to `C[C@]1(c2nc3c(C(N)=O)cccc3[nH]2)CCCN1` [Veliparib] + C=CCn1c(=O)c2cnc(Nc3ccc(N4CCN(C)CC4)cc3)nc2n1-c1cccc(C(C)(C)O)n1 [MK1775] (first compound 1.4 µM, partner dose 0.02 µM) belongs 115%.
As to `Cn1c(Nc2ccc(C(F)(F)F)cc2)nc2cc(Oc3ccnc(-c4ncc(C(F)(F)F)[nH]4)c3)ccc21` + O=C(Nc1cccc(Cl)c1)Nc1ncc(CCNc2ncnc3ccsc23)s1 [SNS314] (first compound 0.08 µM, partner dose 0.0008 µM), the “cleaved PARP positive nuclei fraction” value was 696%.
On the same count and under the same terms, in the case of `C#Cc1cccc(Nc2ncnc3cc(OCCOC)c(OCCOC)cc23)c1` [erlotinib] + O=C(Nc1ccccc1)c1cc([N+](=O)[O-])ccc1Cl [GW9662] (first compound 0.8 µM, partner dose 2 µM) it was 74.4%.
In the case of `NC(=O)Nc1cc(-c2cccc(F)c2)sc1C(=O)N[C@H]1CCCNC1` + C[C@@H]1CCN(C(=O)CC#N)C[C@@H]1N(C)c1ncnc2[nH]ccc12 [CP690550] (first compound 0.02 µM, partner dose 1 µM), the “cleaved PARP positive nuclei fraction” value was determined as 58.4%.
For `COCC[n+]1c2c(n(Cc3cnccn3)c1C)C(=O)c1ccccc1C2=O` + OCCn1cc(-c2cnc3nnn(Cc4ccc5ncccc5c4)c3n2)cn1 [PF04217903] (first compound 0.0004 µM, partner dose 1 µM), the “cleaved PARP positive nuclei fraction” value turned out to be 205%.
On the same count and under the same terms, in the case of `C=CCn1c(=O)c2cnc(Nc3ccc(N4CCN(C)CC4)cc3)nc2n1-c1cccc(C(C)(C)O)n1` + COc1ccc(-c2ccc3c(N4CCOCC4)nc(N4C[C@@H](C)O[C@@H](C)C4)nc3n2)cc1CO [KU0063794] (first compound 0.02 µM, partner dose 0.02 µM) it was 102%; in that of `Cc1cc(N2CCOCC2)cc2[nH]c(-c3c(NC[C@@H](O)c4cccc(Cl)c4)cc[nH]c3=O)nc12` + CCCCCCCCCCCC1=C(O)C(=O)C=C(O)C1=O [Embelin] (first compound 0.2 µM, partner dose 1.2 µM), 53.9%.
For `C=CCNC1=C2C[C@@H](C)C[C@H](OC)[C@H](O)[C@@H](C)/C=C(\C)[C@H](OC(N)=O)[C@@H](OC)/C=C\C=C(/C)C(=O)NC(=CC1=O)C2=O` [Tanespimycin] + CN(NC(=O)CC(=O)NN(C)C(=S)c1ccccc1)C(=S)c1ccccc1 [STA4783] (first compound 0.002 µM, partner dose 0.006 µM), the “cleaved PARP positive nuclei fraction” value came to 162%.
Take `COCC[n+]1c2c(n(Cc3cnccn3)c1C)C(=O)c1ccccc1C2=O` + N#Cc1c(O)c2c(-c3ccc(-c4ccccc4O)cc3)csc2[nH]c1=O [A769662] (first compound 0.0004 µM, partner dose 2 µM): the “cleaved PARP positive nuclei fraction” value stood at 186%.
Still for that read-out and setting: to `C[C@@H]1CCN(C(=O)CC#N)C[C@@H]1N(C)c1ncnc2[nH]ccc12` + COc1ccc(COc2ccc(Cc3cnc(N)nc3N)cc2OC)cc1 [GW2580] (first compound 1 µM, partner dose 1 µM) belongs 31.9%.

(Values after the supplement of paper PMC4604168 (melanoma cell lines).)
